PubChem BioAssay AID686938 | Drosophila RNAi Screening Center, 2013

Screen: 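Looking for CRAC channel components and the factors controlling them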 (primary screen)
Cell system: Drosophila S2R+ cells
Reagents: long dsRNA against Drosophila genes, about 0.25 µg dsRNA per well, roughly 10,000 cells
Duration: 5 days of knock-down before the calcium assay
Challenge: thapsigargin (SERCA pump blocker) to empty calcium stores; entry signal taken 4 min after adding it
Measurement: 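Duplicate raw fluo-4 intensities per well from a plate reader, at rest and four minutes after thapsigargin emptied calcium stores; entry-to-rest ratio filled for only some wells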
Direction: calcium entry signal: higher = stronger calcium signal after store depletion; resting calcium signal: higher = higher resting calcium signal
Hit rule: 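Called when the plate z-score of the entry-to-rest ratio, mean of duplicates, falls below −3; wells with low overall dye signal (Fmax z below −2) or more than five off-targets excluded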
Calls: active = strongly reduced calcium entry; inactive = no strong reduction
In all, the deposit lists about 23,000 reagents; shown is a random part of those with a known target gene and a result. In the full data, 75 (0.33%) were called active. 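Raw plate signals without normalisation; calls rest on plate z-scores that were not deposited; ratio present for only 364 wells.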 Entries without a mark were called inactive. A plus sign joins genes that one reagent is predicted to hit. No sequences are given here. The record does not give: the dose of the treatment.

Target gene	DRSC id	calcium entry signal, replicate 1 (fluorescence units)	calcium entry signal, replicate 2 (fluorescence units)	resting calcium signal, replicate 1 (fluorescence units)	resting calcium signal, replicate 2 (fluorescence units)
scw	DRSC01711	3.14e7	3.63e7	1.71e7	1.87e7
scw	DRSC21252	5.48e7	4.60e7	2.63e7	2.04e7
CG9962	DRSC00739	3.48e7	3.29e7	1.65e7	1.59e7
CG12824	DRSC06173	3.28e7	3.23e7	1.50e7	1.40e7
CG14071	DRSC02374	3.53e7	4.31e7	1.74e7	1.92e7
Cyp316a1	DRSC11130	3.12e7	4.11e7	1.46e7	1.78e7
trus	DRSC15772	3.47e7	4.04e7	1.71e7	2.08e7
CG13516	DRSC04159	4.12e7	4.76e7	2.17e7	2.22e7
Rgk3	DRSC04250	2.76e7	4.13e7	1.47e7	2.02e7
Rgk3	DRSC04251	5.06e7	4.67e7	2.44e7	2.00e7
Rgk3	DRSC04254	4.23e7	4.67e7	2.07e7	2.01e7
Rgk3	DRSC04255	3.97e7	4.51e7	1.99e7	1.98e7
BomBc1	DRSC06501	5.00e7	5.64e7	2.02e7	2.64e7
CG31538	DRSC12059	2.90e7	6.32e7	1.52e7	2.85e7
Boh2	DRSC02777	3.36e7	4.24e7	1.62e7	1.91e7
CG34193	DRSC05665	3.44e7	4.99e7	1.58e7	2.24e7
CG13615	DRSC14618	2.99e7	4.94e7	1.84e7	1.95e7
L2HGDH	DRSC02082	4.09e7		1.81e7	
CG31624	DRSC02617	4.45e7		2.01e7	
NHP2	DRSC11229	3.56e7	4.62e7	1.65e7	1.95e7
CG12081	DRSC17802	2.93e7	3.47e7	1.46e7	1.53e7
Cyp313a5	DRSC16628	3.61e7	2.61e7	1.77e7	1.43e7
CG30048	DRSC22205	3.57e7	4.14e7	1.77e7	2.20e7
Elba3	DRSC00469	3.59e7		1.68e7	
CG9304	DRSC04538	4.86e7	4.86e7	2.45e7	2.30e7
Wee1	DRSC03635	3.78e7	3.19e7	1.77e7	1.59e7
Wee1	DRSC23318	3.71e7	4.00e7	1.75e7	1.76e7
Tep5Psi	DRSC02183	4.87e7	4.30e7	2.33e7	2.05e7
Tep5Psi	DRSC02184	6.29e7	4.31e7	2.81e7	1.83e7
CG43131	DRSC12046	2.21e7	3.99e7	1.14e7	2.05e7
Mal-A3	DRSC07462	3.92e7	4.22e7	1.86e7	1.87e7
HDAC1	DRSC08696	3.13e7	2.60e7	2.80e7	1.27e7
VhaM9.7-d	DRSC15028	2.99e7	5.13e7	1.44e7	6.46e7
e(y)3	DRSC19450	5.02e7	4.79e7	2.26e7	1.87e7
CG15641	DRSC19677	2.78e7	3.43e7	1.45e7	1.53e7
CG14551	DRSC14894	3.23e7	5.24e7	1.78e7	2.39e7
CG9609	DRSC20199	2.23e7	2.30e7	1.08e7	1.03e7
CG11317	DRSC14299	4.08e7	4.09e7	1.85e7	2.01e7
Myt1	DRSC11228	3.46e7	4.24e7	1.51e7	1.86e7
dila	DRSC06607	4.08e7	2.90e7	2.15e7	1.36e7
dtn	DRSC17939	3.43e7	3.01e7	1.70e7	1.47e7
Sas-4	DRSC12505	4.53e7	4.47e7	2.34e7	2.14e7
Spn85F	DRSC14545	4.53e7	1.82e7	2.10e7	1.04e7
CG15651	DRSC04242	4.09e7	5.48e7	2.03e7	2.45e7
ppk28	DRSC19919	3.30e7	3.07e7	1.71e7	1.49e7
Nup75	DRSC06947	3.78e7	3.06e7	1.84e7	1.63e7
CG14126 (retired record)	DRSC10130	3.02e7	4.54e7	1.66e7	2.06e7
CG31174	DRSC13518	3.48e7	2.73e7	1.73e7	1.28e7
Jasper	DRSC16352	3.26e7	4.55e7	1.59e7	1.93e7
Rnf146	DRSC11045	2.83e7	4.78e7	1.33e7	1.96e7
Pdha	DRSC18413	3.42e7	5.18e7	1.71e7	2.22e7
SNCF	DRSC10115	2.77e7	4.27e7	1.50e7	2.07e7
CG32212 + hpRNA:CR33940	DRSC09618	3.33e7	3.67e7	1.72e7	1.50e7
CG15824	DRSC00473	2.94e7	3.19e7	1.44e7	1.41e7
AdamTS-B	DRSC17402	2.80e7	3.21e7	1.29e7	1.40e7
AdamTS-B	DRSC18346	3.37e7	3.71e7	1.59e7	1.70e7
Teh1	DRSC14544	4.35e7	4.02e7	2.21e7	2.17e7
CG15120	DRSC06542	4.94e7	6.04e7	1.97e7	2.76e7

Reprinted from the listing (10 entries):
Target gene	DRSC id	calcium entry signal, replicate 1 (fluorescence units)	calcium entry signal, replicate 2 (fluorescence units)	resting calcium signal, replicate 1 (fluorescence units)	resting calcium signal, replicate 2 (fluorescence units)
CG43131	DRSC12046	2.21e7	3.99e7	1.14e7	2.05e7
Mal-A3	DRSC07462	3.92e7	4.22e7	1.86e7	1.87e7
HDAC1	DRSC08696	3.13e7	2.60e7	2.80e7	1.27e7
VhaM9.7-d	DRSC15028	2.99e7	5.13e7	1.44e7	6.46e7
e(y)3	DRSC19450	5.02e7	4.79e7	2.26e7	1.87e7
CG15641	DRSC19677	2.78e7	3.43e7	1.45e7	1.53e7
CG14551	DRSC14894	3.23e7	5.24e7	1.78e7	2.39e7
CG9609	DRSC20199	2.23e7	2.30e7	1.08e7	1.03e7
CG11317	DRSC14299	4.08e7	4.09e7	1.85e7	2.01e7
Myt1	DRSC11228	3.46e7	4.24e7	1.51e7	1.86e7
